This is one part of the list. Most values lie at the level of the controls, where differences are scatter.
The targets below were run with CN[C@@H]1C[C@H]2O[C@@](C)([C@@H]1OC)n1c3ccccc3c3c4c(c5c6ccccc6n2c5c31)C(=O)NC4 [staurosporine] (assay: log2 fold change of tryptic peptide abundance, ligand vs vehicle (limited proteolysis) (log2 ratio); higher = more trypsin-susceptible (destabilized)). Conditions: ligand concentration: 20 uM; sample: K562 cleared lysate; digestion: 4 min, 22 C (HT-PELSA RT4min, Orbitrap Astral).

By UniProt entry, the sequences of proteins in these tests, tags left out. Where a name states a change or a piece, a line headed by the entry shows the natural chain unless it says otherwise.
UniProt Q9BQ75: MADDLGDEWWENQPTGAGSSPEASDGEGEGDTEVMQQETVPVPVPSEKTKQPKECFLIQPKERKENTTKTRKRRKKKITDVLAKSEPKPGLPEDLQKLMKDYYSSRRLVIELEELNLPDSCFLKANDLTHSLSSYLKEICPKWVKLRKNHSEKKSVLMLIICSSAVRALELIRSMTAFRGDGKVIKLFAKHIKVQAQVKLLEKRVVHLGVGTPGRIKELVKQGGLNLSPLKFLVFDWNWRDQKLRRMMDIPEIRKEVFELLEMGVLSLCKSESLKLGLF
UniProt Q9BQE6: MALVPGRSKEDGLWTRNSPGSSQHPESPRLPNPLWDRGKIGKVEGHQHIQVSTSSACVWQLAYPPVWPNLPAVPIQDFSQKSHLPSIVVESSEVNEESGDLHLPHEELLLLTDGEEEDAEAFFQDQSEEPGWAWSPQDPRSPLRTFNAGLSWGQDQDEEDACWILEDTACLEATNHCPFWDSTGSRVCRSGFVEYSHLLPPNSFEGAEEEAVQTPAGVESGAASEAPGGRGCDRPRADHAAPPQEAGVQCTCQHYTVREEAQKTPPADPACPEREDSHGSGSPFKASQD
UniProt Q9BSJ6: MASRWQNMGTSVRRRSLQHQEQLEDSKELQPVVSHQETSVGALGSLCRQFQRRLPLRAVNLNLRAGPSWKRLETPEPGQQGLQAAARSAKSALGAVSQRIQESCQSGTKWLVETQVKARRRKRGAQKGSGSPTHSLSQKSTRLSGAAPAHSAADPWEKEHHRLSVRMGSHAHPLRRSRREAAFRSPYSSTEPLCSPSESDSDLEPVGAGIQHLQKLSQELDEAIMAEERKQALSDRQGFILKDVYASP
UniProt Q99700, whole entry: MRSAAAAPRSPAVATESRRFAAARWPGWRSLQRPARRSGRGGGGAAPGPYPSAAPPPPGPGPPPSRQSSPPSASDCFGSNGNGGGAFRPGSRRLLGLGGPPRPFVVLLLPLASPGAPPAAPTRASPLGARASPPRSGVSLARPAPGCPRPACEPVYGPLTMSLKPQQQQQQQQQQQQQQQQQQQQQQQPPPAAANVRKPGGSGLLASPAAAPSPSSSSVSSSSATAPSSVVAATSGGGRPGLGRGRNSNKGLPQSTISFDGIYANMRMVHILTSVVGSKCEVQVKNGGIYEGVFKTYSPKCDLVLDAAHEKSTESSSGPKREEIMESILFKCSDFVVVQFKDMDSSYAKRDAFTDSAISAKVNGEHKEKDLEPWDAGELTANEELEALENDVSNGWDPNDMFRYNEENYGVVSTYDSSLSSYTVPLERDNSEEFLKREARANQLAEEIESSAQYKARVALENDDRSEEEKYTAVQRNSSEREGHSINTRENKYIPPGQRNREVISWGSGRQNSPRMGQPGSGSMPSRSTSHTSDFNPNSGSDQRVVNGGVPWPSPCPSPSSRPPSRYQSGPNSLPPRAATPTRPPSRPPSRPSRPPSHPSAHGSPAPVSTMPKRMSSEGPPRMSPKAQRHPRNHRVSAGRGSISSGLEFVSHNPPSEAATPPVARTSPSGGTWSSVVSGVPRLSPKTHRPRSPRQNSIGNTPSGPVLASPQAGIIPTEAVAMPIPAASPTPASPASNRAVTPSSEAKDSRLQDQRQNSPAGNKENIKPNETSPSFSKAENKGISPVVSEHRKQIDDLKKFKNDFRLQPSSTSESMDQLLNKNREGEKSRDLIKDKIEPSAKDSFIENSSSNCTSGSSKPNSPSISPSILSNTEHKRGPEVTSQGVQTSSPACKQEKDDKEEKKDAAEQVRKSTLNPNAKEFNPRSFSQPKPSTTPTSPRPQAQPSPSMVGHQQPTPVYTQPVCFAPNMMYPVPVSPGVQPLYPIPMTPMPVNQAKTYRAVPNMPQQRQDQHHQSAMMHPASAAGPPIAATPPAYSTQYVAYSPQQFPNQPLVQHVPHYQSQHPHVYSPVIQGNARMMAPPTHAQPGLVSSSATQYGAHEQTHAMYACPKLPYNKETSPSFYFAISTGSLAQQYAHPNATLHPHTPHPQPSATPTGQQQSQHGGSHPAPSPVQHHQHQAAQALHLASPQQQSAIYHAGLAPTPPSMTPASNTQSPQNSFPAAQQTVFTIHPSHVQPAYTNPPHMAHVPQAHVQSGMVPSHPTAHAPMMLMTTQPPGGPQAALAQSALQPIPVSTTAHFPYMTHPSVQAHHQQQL
UniProt Q9BUW7: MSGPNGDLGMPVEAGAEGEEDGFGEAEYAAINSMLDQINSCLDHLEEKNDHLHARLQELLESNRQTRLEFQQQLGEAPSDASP
UniProt Q9BQ89: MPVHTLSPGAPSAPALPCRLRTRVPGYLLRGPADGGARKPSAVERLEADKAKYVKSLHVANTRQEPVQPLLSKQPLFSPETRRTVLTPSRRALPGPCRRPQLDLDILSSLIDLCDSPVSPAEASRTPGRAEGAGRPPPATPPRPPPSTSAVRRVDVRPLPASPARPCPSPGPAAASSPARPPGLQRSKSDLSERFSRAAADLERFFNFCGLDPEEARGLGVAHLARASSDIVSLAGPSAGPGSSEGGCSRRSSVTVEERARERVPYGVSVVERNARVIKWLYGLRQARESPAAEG
UniProt Q99829: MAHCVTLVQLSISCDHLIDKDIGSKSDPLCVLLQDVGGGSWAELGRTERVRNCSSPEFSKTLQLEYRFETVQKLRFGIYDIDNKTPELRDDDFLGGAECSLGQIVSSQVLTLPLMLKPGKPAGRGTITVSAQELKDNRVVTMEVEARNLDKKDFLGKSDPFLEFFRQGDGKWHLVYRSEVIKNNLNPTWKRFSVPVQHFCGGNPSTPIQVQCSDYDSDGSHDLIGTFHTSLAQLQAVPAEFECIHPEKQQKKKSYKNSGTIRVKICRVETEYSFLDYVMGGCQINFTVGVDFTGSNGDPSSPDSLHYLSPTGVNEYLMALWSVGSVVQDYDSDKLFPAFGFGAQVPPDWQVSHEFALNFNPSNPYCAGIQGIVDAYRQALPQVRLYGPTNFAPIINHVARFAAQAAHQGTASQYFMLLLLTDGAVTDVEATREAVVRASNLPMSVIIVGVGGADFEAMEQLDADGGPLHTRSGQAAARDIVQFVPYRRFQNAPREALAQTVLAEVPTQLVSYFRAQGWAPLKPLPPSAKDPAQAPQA
UniProt Q9BVV6: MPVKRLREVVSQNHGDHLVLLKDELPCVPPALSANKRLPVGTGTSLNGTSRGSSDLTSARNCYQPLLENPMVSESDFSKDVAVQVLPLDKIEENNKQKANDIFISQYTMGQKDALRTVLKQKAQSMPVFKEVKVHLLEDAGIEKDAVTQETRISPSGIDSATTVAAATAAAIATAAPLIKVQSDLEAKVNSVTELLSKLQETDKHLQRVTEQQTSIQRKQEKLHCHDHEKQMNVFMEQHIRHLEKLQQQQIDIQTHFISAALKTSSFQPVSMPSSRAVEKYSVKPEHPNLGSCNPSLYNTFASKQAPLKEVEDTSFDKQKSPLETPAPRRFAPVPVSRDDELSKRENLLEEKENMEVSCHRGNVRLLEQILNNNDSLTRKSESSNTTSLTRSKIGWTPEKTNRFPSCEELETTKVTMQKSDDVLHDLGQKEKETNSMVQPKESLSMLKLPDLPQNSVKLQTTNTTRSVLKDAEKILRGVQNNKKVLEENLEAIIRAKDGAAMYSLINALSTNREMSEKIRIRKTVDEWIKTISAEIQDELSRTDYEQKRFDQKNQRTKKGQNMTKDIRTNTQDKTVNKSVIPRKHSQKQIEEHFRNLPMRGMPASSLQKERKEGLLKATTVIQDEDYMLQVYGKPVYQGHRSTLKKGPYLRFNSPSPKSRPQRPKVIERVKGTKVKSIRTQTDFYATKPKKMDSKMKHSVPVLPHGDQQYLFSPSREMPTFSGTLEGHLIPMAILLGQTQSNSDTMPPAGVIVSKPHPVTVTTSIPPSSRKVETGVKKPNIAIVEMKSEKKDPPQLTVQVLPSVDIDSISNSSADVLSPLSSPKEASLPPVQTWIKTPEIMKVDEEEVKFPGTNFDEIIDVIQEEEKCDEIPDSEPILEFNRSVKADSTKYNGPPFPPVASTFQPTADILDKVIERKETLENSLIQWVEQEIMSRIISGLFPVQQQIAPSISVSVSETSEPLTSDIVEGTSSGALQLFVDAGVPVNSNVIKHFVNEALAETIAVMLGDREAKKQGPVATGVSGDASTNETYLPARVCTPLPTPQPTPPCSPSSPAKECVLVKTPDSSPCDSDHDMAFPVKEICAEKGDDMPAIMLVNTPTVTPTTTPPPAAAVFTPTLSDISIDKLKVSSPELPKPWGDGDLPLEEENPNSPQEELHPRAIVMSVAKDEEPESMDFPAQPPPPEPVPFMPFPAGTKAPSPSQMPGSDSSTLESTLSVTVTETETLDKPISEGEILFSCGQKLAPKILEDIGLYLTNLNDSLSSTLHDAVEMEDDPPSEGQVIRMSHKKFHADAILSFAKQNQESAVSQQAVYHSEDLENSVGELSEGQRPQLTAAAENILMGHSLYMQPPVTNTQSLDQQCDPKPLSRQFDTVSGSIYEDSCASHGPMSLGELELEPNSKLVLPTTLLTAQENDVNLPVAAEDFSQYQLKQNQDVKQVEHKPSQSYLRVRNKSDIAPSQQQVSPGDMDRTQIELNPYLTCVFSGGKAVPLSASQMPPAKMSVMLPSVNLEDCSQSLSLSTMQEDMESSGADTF

Row | Target | log2 fold change
1 | UniProt Q9BQ75 (peptide sequence: TKQPKECFLIQPK, peptide start residue: 49) | 0.403
2 | LBHD1 (peptide sequence: LPNPLWDR, peptide start residue: 30) (UniProt Q9BQE6) | -0.263
3 | PIMREG (peptide sequence: LSGAAPAHSAADPWEKEHHR, peptide start residue: 143) (UniProt Q9BSJ6) | 0.143
4 | ATXN2 (peptide sequence: STSHTSDFNPNSGSDQR, peptide start residue: 528) (UniProt Q99700) | -0.166
5 | C9orf16 (peptide sequence: NDHLHAR, peptide start residue: 49) (UniProt Q9BUW7) | -0.0759
6 | FAM110A (peptide sequence: GLGVAHLAR, peptide start residue: 218) (UniProt Q9BQ89) | 0.324
7 | CPNE1 (peptide sequence: DFLGKSDPFLEFFR, peptide start residue: 153) (UniProt Q99829) | -0.227
8 | KIAA0586 (peptide sequence: QVEHKPSQSYLR, peptide start residue: 1437) (UniProt Q9BVV6) | -0.709
